“And” between values parts separate entries of the source, which are not always exact repeats. Equal values may be shown once. The campaign covered roughly 390,000 compounds. About 4,000 (1%) were called active. The inconclusive results got no clear call from the source; some entries with a clear call stand among them for comparison. Calls follow the shape of the dose curve; as a rule, active = well fitted inhibition curve with a large enough effect; inconclusive = small, poorly fitted or top-dose-only effect, or another doubt; inactive = no such curve, though single readings can be large or run the other way. Potencies beside an inconclusive call are fits to weak or partial responses and may not hold up.
Target: DNA polymerase iota (Homo sapiens) (UniProt Q9UNA4)
Assay: qHTS for Inhibitors of Polymerase Iota
Settings: Pol iota fluorescent replication assay, 10 min; series mostly up to 115 µM; activity, negative = inhibition: at the top concentration
Procedure, shortened: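 Fluorescent replication assay read twice, at 0 min and 10 min after adding 50 nM (final) substrate. Enzyme (10 nM) and compounds were first incubated 15 min at room temperature; enzyme-free buffer wells were negative controls.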
Potency is read from the fitted curve at half-maximal effect.

Amino acid sequences for entries named in this document (tags omitted). A change or cut given only in a name is not applied to a line headed by its entry.
UniProt Q9UNA4: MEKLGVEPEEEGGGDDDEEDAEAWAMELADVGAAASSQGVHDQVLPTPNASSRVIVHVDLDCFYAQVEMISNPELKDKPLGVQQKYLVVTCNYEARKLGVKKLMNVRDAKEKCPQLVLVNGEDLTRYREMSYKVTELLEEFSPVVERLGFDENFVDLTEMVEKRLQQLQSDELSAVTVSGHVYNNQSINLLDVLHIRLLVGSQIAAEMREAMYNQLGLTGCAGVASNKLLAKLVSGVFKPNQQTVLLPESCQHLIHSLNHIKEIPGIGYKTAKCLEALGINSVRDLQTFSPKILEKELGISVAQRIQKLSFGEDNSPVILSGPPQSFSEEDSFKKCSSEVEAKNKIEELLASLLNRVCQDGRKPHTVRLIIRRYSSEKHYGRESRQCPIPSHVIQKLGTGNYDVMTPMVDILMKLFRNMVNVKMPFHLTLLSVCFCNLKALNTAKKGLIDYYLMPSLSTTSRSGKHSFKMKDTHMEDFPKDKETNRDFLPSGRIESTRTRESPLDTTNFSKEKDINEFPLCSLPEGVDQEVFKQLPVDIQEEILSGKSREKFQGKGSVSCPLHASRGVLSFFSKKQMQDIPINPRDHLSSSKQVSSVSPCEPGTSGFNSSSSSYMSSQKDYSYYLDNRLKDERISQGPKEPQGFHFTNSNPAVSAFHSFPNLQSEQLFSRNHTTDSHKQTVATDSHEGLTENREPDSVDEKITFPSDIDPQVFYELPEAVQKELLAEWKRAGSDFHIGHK

Potency, inconclusive:
C=C(CN(C)C)C(=O)c1ccc(C)cc1C 22.4 µM [inhibitor, partial curve]
C=CC[n+]1ccc(/C=C2\C=Cc3cc(C)ccc3N2CC)c2ccccc21 20 µM [inhibitor, full curve]
CCOC(=O)C1(C(=O)OCC)NC(=O)CC1C (stereo not drawn) 89.1 µM [inhibitor, single point]
CCOC(=O)C1Nc2ccc(C(F)(F)F)cc2C2C=CCC12 (stereo not drawn) 22.4 µM [inhibitor, full curve, poor fit]
O=C(Nc1ccc(Cl)cc1C(=O)Nc1ccccn1)c1ccco1 31.6 µM [inhibitor, single point]
CN(C)S(=O)(=O)c1ccc(C(=O)NCCc2ccco2)cc1 56.2 µM [inhibitor, partial curve, poor fit]
Cc1cccc(OCCOCCN2CCNCC2)c1C 89.1 µM [inhibitor, partial curve]
CCCc1c(C(=O)N/N=C/c2cccs2)nnn1-c1nonc1N 79.4 µM [inhibitor, partial curve]
CC(C)NS(=O)(=O)c1ccc(CCC(=O)O)cc1 11.2 µM [inhibitor, single point]
O=C(NC1CCCC1)C(c1ccncc1)N(Cc1ccco1)C(=O)c1ccc(-c2ccccc2)[nH]1 (stereo not drawn) 39.8 µM [inhibitor, single point]
O=C(NNC(=O)c1cccnc1)Nc1cccc2ccccc12 35.5 µM [inhibitor, single point]
O=C(CSc1ncccc1-c1nc2ccccc2[nH]1)NCc1ccco1 35.5 µM [inhibitor, partial curve, poor fit]
CCOC(=O)Nc1ccc2c(c1)N(C(=O)CN1CCN(C)CC1)c1ccccc1S2 31.6 µM [inhibitor, single point]
Cc1ccc(NC(=O)Cn2nnc(C(=O)NCc3cccs3)c2N)cc1Cl 89.1 µM [inhibitor, single point] and 89.1 µM [inhibitor, partial curve, poor fit]
Cc1cc(=O)n2c(n1)SCOC2 79.4 µM [inhibitor, partial curve, poor fit]
COC(=O)c1ccc(N(C(=O)c2ccco2)C(C(=O)NC2CCCC2)c2ccco2)cc1 (stereo not drawn) 39.8 µM [inhibitor, single point]
CCSc1nnc(NC(=O)C2Cc3ccccc3CN2C(=O)c2ccco2)s1 (stereo not drawn) 10 µM [inhibitor, partial curve, poor fit]
COC(=O)C1=CN(Cc2ccc(C)cc2)C=C(C(=O)OC)C1c1cc(OC)c(OC)c(OC)c1 100 µM [inhibitor, partial curve, poor fit]
O=C(CSCc1c(Cl)cccc1Cl)Nc1ccc2c(c1)OCO2 17.8 µM [inhibitor, single point]
COc1ccc(CC(=O)N/N=C/c2ccc(-c3cccc(C(=O)O)c3)o2)cc1OC 22.4 µM [inhibitor, full curve, poor fit]
Cc1cccc(CN2CCN(C(C)C(=O)NC(C)c3ccccc3)CC2)c1 (stereo not drawn) 56.2 µM [inhibitor, partial curve, poor fit]
COc1ccc(NC(=O)c2c(NC(=O)Cc3ccccc3)sc3c2CCCC3)cc1 89.1 µM [inhibitor, single point]
COc1ccc(N2C(=S)N(C(=O)c3ccccc3)C(=Nc3ccccc3)C2=Nc2ccccc2)cc1 17.8 µM [inhibitor, partial curve, poor fit]
CS(=O)(=O)c1nc(-c2ccccc2)cc(C(F)(F)F)n1 14.1 µM [inhibitor, partial curve, poor fit]
O=C(NCCN1CCNCC1)c1ccccn1 28.2 µM [inhibitor, partial curve, poor fit]
CC(=O)c1c(C)[nH]c(C(=O)COc2ccc3ccc(=O)oc3c2)c1C 20 µM [inhibitor, full curve, poor fit]
OC(CC1CC12c1ccccc1-c1ncccc12)(c1ccccc1)c1ccccc1 (stereo not drawn) 79.4 µM [inhibitor, partial curve]
O=c1[nH]c(/C=C/c2ccccc2Cl)c([N+](=O)[O-])c(=O)[nH]1 20 µM [inhibitor, full curve, poor fit]
COC(=O)/C(=C\C(=O)c1ccc([N+](=O)[O-])cc1)Nc1ccc(OC)cc1 44.7 µM [inhibitor, partial curve]
O=C(O)c1cccc(N2C(=O)c3cc4cccc(Br)c4cc3C2=O)c1 89.1 µM [inhibitor, single point]
Cc1ccc(Oc2ccc(NS(=O)(=O)c3cccc(C(=O)O)c3)cc2)cc1 79.4 µM [inhibitor, partial curve, poor fit]
C=CCn1c(SCc2nc3sc(C(=O)O)c(C)c3c(=O)[nH]2)nnc1-c1ccc(C(C)(C)C)cc1 15.8 µM [inhibitor, full curve, poor fit]
Cc1nn(C)cc1C(=O)NNC(=S)Nc1ccc(Cl)cc1 56.2 µM [inhibitor, partial curve, poor fit]
Cc1occc1C(=O)NNC(=O)C1CC1 50.1 µM [inhibitor, partial curve, poor fit]
CCn1nnnc1NCc1cccn1C 25.1 µM [inhibitor, full curve]
COc1ccccc1NC(=O)c1cc(C2CC2)nc2c1c(C)nn2-c1ccc(C)cc1 89.1 µM [inhibitor, single point]
CCCC[n+]1c2ccccc2cc2ccccc21 31.6 µM [inhibitor, partial curve, poor fit]
COc1ccc(Nc2cc(C(=O)NCc3ccccc3)c3ccccc3n2)cc1OC 89.1 µM [inhibitor, single point]
COC(=O)c1sc(N2C(=O)C(O)=C(C(=O)c3ccc(C)o3)C2c2ccc(F)cc2)nc1C (stereo not drawn) 50.1 µM [inhibitor, partial curve]
C=CCn1c(NC(=O)c2ccc(Br)o2)c(S(=O)(=O)c2ccccc2)c2nc3ccccc3nc21 3.16 µM [inhibitor, full curve, poor fit]
N#Cc1ccc(-n2nccc2-c2cnc3n(c2=O)CCS3)cc1 14.1 µM [inhibitor, partial curve, poor fit]
CC(C)c1ccc(/C=C2\Oc3c(ccc(O)c3CN3CCN(C)CC3)C2=O)cc1 39.8 µM [inhibitor, partial curve, poor fit]
Cc1ccc2nc(SCC(=O)Nc3ccc(C#N)cc3)[nH]c2c1 25.1 µM [inhibitor, partial curve]
COc1ccc(S(=O)(=O)N2CCCCC2)cc1NC(=O)CCNC(=O)c1ccccc1Cl 0.708 µM [inhibitor, full curve, poor fit]
COc1ccccc1-n1cnc2c(c1=O)c1nc3ccccc3nc1n2-c1ccc(C)c(C)c1 5.01 µM [inhibitor, full curve, poor fit]
CCOC(=O)c1ccccc1NC(=O)c1ccc(N(C)S(C)(=O)=O)cc1 89.1 µM [inhibitor, single point]
O=C(NCCc1c[nH]c2ccccc12)Nc1cccc2ccccc12 112 µM [inhibitor, single point]
O=C(/C=C/c1cccc(F)c1)c1ccc(N2CCOCC2)cc1 12.6 µM [inhibitor, full curve, poor fit]
O=C(COC(=O)C1c2ccccc2Oc2ccccc21)Nc1ccc2c(c1)OCO2 39.8 µM [inhibitor, single point]

In the list so far, 4 contain fluorine:
Potency, inconclusive:
CCOC(=O)C1Nc2ccc(C(F)(F)F)cc2C2C=CCC12 (stereo not drawn) 22.4 µM [inhibitor, full curve, poor fit]
CS(=O)(=O)c1nc(-c2ccccc2)cc(C(F)(F)F)n1 14.1 µM [inhibitor, partial curve, poor fit]
COC(=O)c1sc(N2C(=O)C(O)=C(C(=O)c3ccc(C)o3)C2c2ccc(F)cc2)nc1C (stereo not drawn) 50.1 µM [inhibitor, partial curve]
O=C(/C=C/c1cccc(F)c1)c1ccc(N2CCOCC2)cc1 12.6 µM [inhibitor, full curve, poor fit]

Following part:

Potency, active:
CCOc1ccc(C(=O)/C=C/Nc2ccc(S(=O)(=O)Nc3cc(C)nc(C)n3)cc2)cc1 39.8 µM
O=c1c(S(=O)(=O)c2ccc(Cl)cc2)cn(Cc2ccc(F)cc2)c2ccc(F)cc12 79.4 µM
COc1cc(/C=N/NC(=O)c2cc(-c3c(C)nn(-c4ccccc4)c3C)n[nH]2)ccc1O 3.16 µM

activity, negative = inhibition, inactive:
CCOc1ccccc1NC(=O)C(c1ccccc1)N1Cc2ccccc2C1=O (stereo not drawn) 5.98%
CCN(CC)S(=O)(=O)c1cc(NC(=O)c2ccc3c(c2)NC(=O)C(C)S3)ccc1C (stereo not drawn) -15.3%
O=C(CO)C(O)C(O)C(O)CO (stereo not drawn) -4.31%
COc1ccc(NC(=O)CSc2nc(-c3ccco3)cc(C(F)(F)F)n2)cc1Cl 4.66%
Cc1cccc(NC(=O)CCc2c(C)nc3c(c(C)nn3C(C)(C)C)c2C)c1C 18.1%
COc1ccc(CNC(=O)c2ccc(CNS(=O)(=O)c3ccc(F)cc3)cc2)cc1 1.29%
Cc1c(C(=O)N2CCC(C)CC2)c(S(=O)(=O)N2CCN(c3cccc(Cl)c3)CC2)c(C)n1C 2.74%
O=c1cc(O)c2c([nH]1)CCC2 10.1%
Cc1ccc(S(=O)(=O)N(Cc2ccccc2)c2ccccc2C(=O)N2CCCCC2)cc1 14%
O=C(CSC(=S)N1CCCC1)N/N=C/c1c(O)[nH]c(=S)[nH]c1=O 34.4%
C=Cc1ccc(Cn2c(=O)cc(C)c3c(C)nn(C)c32)cc1 -1.12%

Source: PubChem BioAssay AID588590 (National Center for Advancing Translational Sciences (NCATS), 2011)
